PubChem BioAssay AID686938, Drosophila RNAi Screening Center, 2013
In all, the deposit lists about 23,000 reagents; shown is an unselected part of those with a known target gene and a result. Of all reagents, 75 (0.33%) are marked active. 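Raw plate signals without normalisation; calls rest on plate z-scores that were not deposited; ratio present for only 364 wells.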 The record does not give: the dose of the treatment.

Screen: 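Looking for CRAC channel components and the factors controlling them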 (primary screen)
Cells: Drosophila S2R+ cells
Reagents: long dsRNA against Drosophila genes, about 0.25 µg dsRNA per well, roughly 10,000 cells
Timing: 5 days of knock-down before the calcium assay
Challenge: thapsigargin (SERCA pump blocker) to empty calcium stores; entry signal taken 4 min after adding it
Read-out: 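Per-well fluo-4 fluorescence in two replicates, unnormalised, measured in resting cells and 4 min after store depletion by the SERCA blocker thapsigargin; ratio of the two present in few wells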
Scale: calcium entry signal: higher = stronger calcium signal after store depletion; resting calcium signal: higher = higher resting calcium signal
Active means: 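Hit if the duplicate-averaged plate z-score for entry over resting signal is under −3; wells with weak total dye signal (Fmax z < −2) or more than 5 off-targets removed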
Meaning of the calls: active = strongly reduced calcium entry; inactive = no strong reduction

| Target gene | DRSC id | calcium entry signal, replicate 1 (fluorescence units) | calcium entry signal, replicate 2 (fluorescence units) | resting calcium signal, replicate 1 (fluorescence units) | resting calcium signal, replicate 2 (fluorescence units) | call |
| --- | --- | --- | --- | --- | --- | --- |
| CG33467 | DRSC05525 | 4.01e7 | 5.35e7 | 1.75e7 | 2.37e7 | inactive |
| CG33467 | DRSC22651 | 4.39e7 | 3.55e7 | 2.62e7 | 1.60e7 | inactive |
| CG15059 | DRSC19633 | 4.13e7 | 3.51e7 | 2.17e7 | 1.54e7 | inactive |
| rt | DRSC11391 | 2.92e7 | 4.02e7 | 1.54e7 | 1.74e7 | inactive |
| HBS1 | DRSC08544 | 3.67e7 | 3.22e7 | 1.55e7 | 1.42e7 | inactive |
| Clic | DRSC19364 | 2.15e7 | 3.28e7 | 1.21e7 | 1.51e7 | inactive |
| se | DRSC10713 | 2.53e7 | 3.46e7 | 1.20e7 | 1.47e7 | inactive |
| gd | DRSC20336 | 4.55e7 | 5.55e7 | 2.20e7 | 2.57e7 | inactive |
| CG9586 | DRSC03270 | 3.76e7 | 6.01e7 | 1.69e7 | 2.57e7 | inactive |
| CR42532 | DRSC06713 | 3.51e7 | 4.98e7 | 1.80e7 | 2.05e7 | inactive |
| Ir56c | DRSC06544 | 4.92e7 | 4.99e7 | 1.93e7 | 2.40e7 | inactive |
| Mon1 | DRSC00336 | 3.76e7 | 3.46e7 | 1.82e7 | 1.69e7 | inactive |
| CG18528 | DRSC15340 | 3.08e7 | 5.64e7 | 1.77e7 | 1.99e7 | inactive |
| Gr58a | DRSC03910 | 2.43e7 | 4.40e7 | 1.12e7 | 1.65e7 | inactive |
| Iyd | DRSC10614 | 3.09e7 | 3.66e7 | 1.52e7 | 1.73e7 | inactive |
| Iyd | DRSC10615 | 2.86e7 | 3.68e7 | 1.45e7 | 1.74e7 | inactive |
| CG1764 | DRSC19779 | 4.25e7 | 4.65e7 | 2.06e7 | 2.07e7 | inactive |
| CG7294 | DRSC03041 | 3.47e7 | 5.04e7 | 1.46e7 | 2.30e7 | inactive |
| NtR | DRSC04628 | 4.02e7 | 6.22e7 | 1.94e7 | 2.63e7 | inactive |
| CG14694 | DRSC14917 | 3.80e7 | 3.21e7 | 1.80e7 | 1.67e7 | inactive |
| sba | DRSC13643 | 3.32e7 | 3.38e7 | 1.68e7 | 1.87e7 | inactive |
| sba | DRSC17050 | 4.60e7 | 5.97e7 | 2.20e7 | 2.79e7 | inactive |
| Sh3beta | DRSC11001 | 5.80e7 | 4.05e7 | 3.80e7 | 1.55e7 | inactive |
| Sh3beta | DRSC22053 | 3.35e7 | 6.32e7 | 1.66e7 | 2.97e7 | inactive |

2 successive reagents already listed:
| Target gene | DRSC id | calcium entry signal, replicate 1 (fluorescence units) | calcium entry signal, replicate 2 (fluorescence units) | resting calcium signal, replicate 1 (fluorescence units) | resting calcium signal, replicate 2 (fluorescence units) | call |
| --- | --- | --- | --- | --- | --- | --- |
| sba | DRSC13643 | 3.32e7 | 3.38e7 | 1.68e7 | 1.87e7 | inactive |
| sba | DRSC17050 | 4.60e7 | 5.97e7 | 2.20e7 | 2.79e7 | inactive |
